Reference: US9844584 (dated 2017)
Some peptides are written in HELM: one residue between dots, names in brackets for other building blocks, links after the first $.

Experiment: general procedure: Fmoc solid-phase peptide synthesis; NH2-Lys(Boc)-2-chloro-Trityl Resin; NH2-Ala-2-chloro-Trityl Resin; NH2-Arg(Pbf)-2-chloro-Trityl Resin; HBTU/HOBt/NMM
Details: whole synthesis, high-performance liquid chromatography

## PEPTIDE1{E.A.R.P.A.L.L.T.S.R.L.R.F.I.P.K}$$$$V2.0
  final purity (method not given): 97.3%
